No constants are given. Whether binding was seen depends on the method and setting. In cells and extracts the contact can be indirect. Some results given as binding are weak or reduced against the parent protein; the word gives no strength. Where a sequence is shown, tags or fusion partners need not be part of it.
Biological target: T1, RIPK-HA (A. thaliana) (UniProt Q9ZUF4)
T1 sequence: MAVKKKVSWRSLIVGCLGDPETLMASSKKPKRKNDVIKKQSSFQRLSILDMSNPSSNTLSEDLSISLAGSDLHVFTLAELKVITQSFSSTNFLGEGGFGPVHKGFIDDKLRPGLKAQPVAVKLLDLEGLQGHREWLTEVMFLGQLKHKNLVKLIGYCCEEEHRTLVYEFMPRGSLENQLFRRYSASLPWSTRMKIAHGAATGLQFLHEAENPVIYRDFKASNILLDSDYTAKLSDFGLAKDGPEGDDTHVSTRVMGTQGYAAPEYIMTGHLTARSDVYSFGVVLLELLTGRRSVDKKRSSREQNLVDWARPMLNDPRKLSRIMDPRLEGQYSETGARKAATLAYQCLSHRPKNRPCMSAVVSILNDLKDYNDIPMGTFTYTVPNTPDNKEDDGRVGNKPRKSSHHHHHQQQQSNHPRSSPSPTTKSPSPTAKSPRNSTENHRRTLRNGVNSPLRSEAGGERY
Experiment: co-IP; extracts of N. benthamiana leaves coexpressing HA-tagged RPM1, RIPK or RPS2 and GFP-fused RIN4/NOI proteins, 3 d after infiltration; anti-HA antibody on Dynabeads protein G, overnight at 4 °C; CoIP buffer 50 mM Tris HCl, 125 mM NaCl, 0.1% tween-20, 1 mM DTT, 10% glycerol, pH 7.4; anti-GFP blot

binding: binds
B1: RIN4 fused to GFP (protein, UniProt Q8GYN5 1-211)
chain: MARSNVPKFGNWEAEENVPYTAYFDKARKTRAPGSKIMNPNDPEYNSDSQSQAPPHPPSSRTKPEQVDTVRRSREHMRSREESELKQFGDAGGSSNEAANKRQGRASQNNSYDNKSPLHKNSYDGTGKSRPKPTNLRADESPEKVTVVPKFGDWDENNPSSADGYTHIFNKVREERSSGANVSGSSRTPTHQSSRNPNNTSSCCCFGFGGK

From paper PMC10869442
